Laboratory results: PubChem BioAssay AID493014 (National Center for Advancing Translational Sciences (NCATS), 2011)
Some of the results follow. The main result of the screen is listed elsewhere. These columns were measured beside it and carry no call. Compounds called inactive in the main read-out are mostly missing here. Potencies come from curve fits of mixed quality, noted in brackets.

Assay: qHTS Assay to Find Inhibitors of Chronic Active B-Cell Receptor Signaling
Conditions: ABC-DLBCL IkBa-CBG/CBR reporter, luminescence ratio (green luciferase fused to IkBa over red control in TMD8 lymphoma cells), 4 h
Method in brief: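 TMD8 human ABC-DLBCL cells with doxycycline-inducible IκBα–green luciferase fusion and unfused red luciferase, in 0.5% FBS medium; compounds up to 46 uM, 4 h at 37C. Green/red luminescence ratio, filter-overlap corrected, fitted to concentration-response curves.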

[1] = measured here: CBR red luminescence, cell number
[2] = measured here: IkBa-CBG green luminescence

| SMILES | AC50 [1] | AC50 [2] |
| --- | --- | --- |
| Cc1cc(=O)oc2cc(NC(=O)c3cc([N+](=O)[O-])ccc3N3CCOCC3)ccc12 | 22.4 µM [falling, single point] |  |
| COc1cccc(NC(=O)Nc2cc(C)ccc2OC)c1 | 3.16 µM [rising, single point] |  |
| Cc1ccccc1NC(=S)N/N=C/c1ccc(O)cc1O | 0.178 µM [falling, full curve, poor fit] | 11.2 µM [rising, single point] |
| Cc1ccc2nc(NC(=O)CSCc3ccccc3)sc2c1 | 20.6 µM [falling, partial curve, poor fit] |  |
| CCc1ccc(C2=NN(C(C)=O)C(c3ccco3)C2)cc1 (centres undefined) | 35.5 µM [falling, single point] |  |
| Nn1c(SCC(=O)Nc2ccc(F)cc2F)nnc1C1CCCCC1 | 14.1 µM [falling, partial curve, poor fit] |  |
| O=C(NCc1ccccc1)c1ccc(C2SCC(=O)N2Cc2ccccc2)cc1 (centres undefined) |  | 18.4 µM [rising, single point] |
| CCOC(=O)C1CCN(C2=NC(=O)/C(=C/c3ccccc3OC)S2)CC1 | 2.82 µM [falling, full curve] |  |
| CCn1cc(/C=C(\NC(=O)c2ccccc2OC)C(=O)NCCCN2CCOCC2)c2ccccc21 | 28.2 µM [falling, single point] |  |
| CC(=O)Nc1ccc(/C(C)=N/NC(=O)c2ccc(F)cc2)cc1 | 23.1 µM [falling, partial curve, poor fit] |  |
| COc1ccc2c(c1)CC/C(=C/c1ccncc1)C2=O | 20.6 µM [falling, single point] |  |
| CCc1ccc(C(=O)N/N=C(\C)c2cccnc2)s1 | 7.94 µM [falling, partial curve, poor fit] |  |
| O=C(NC(=S)N1CCCCCC1)c1ccccc1 | 17.8 µM [rising, partial curve, poor fit] |  |
| COc1ccccc1/C=C1\SC(=S)N(CCC(=O)Nc2nnc(C)s2)C1=O | 11.2 µM [falling, single point] |  |
| Cc1ccc(CNC(=O)C2CC(c3cc(C(F)(F)F)cc(C(F)(F)F)c3)=NO2)o1 (centres undefined) | 20 µM [rising, single point] |  |
| C/C(Cn1nc([N+](=O)[O-])cc1C)=N\NC(=O)COc1ccccc1[N+](=O)[O-] | 18.4 µM [rising, partial curve] |  |
| O=C(CSC(=S)N1CCCC1)c1cc(Br)cc(Br)c1O | 35.5 µM [falling, single point] | 35.5 µM [falling, single point] |
| COc1ccccc1N1C(=O)CC(N2CCc3ccccc32)C1=O (centres undefined) | 0.411 µM [falling, full curve, poor fit] |  |
| Cc1ccc(NC(=O)CC(C)S(=O)(=O)c2ccc3c(c2)NC(=O)CO3)c(Cl)c1 (centres undefined) | 35.5 µM [falling, single point] | 22.4 µM [rising, partial curve, poor fit] |
| CCn1c(=N)n(CC(=O)c2ccc(Br)s2)c2ccccc21 | 1.58 µM [rising, partial curve, poor fit] |  |
| Cc1[nH]n(-c2ccccc2)c(=O)c1C(=O)c1ccccc1 | 35.5 µM [falling, single point] |  |

Part of the list above, tab-delimited:
SMILES	AC50 [1]	AC50 [2]
CCc1ccc(C2=NN(C(C)=O)C(c3ccco3)C2)cc1 (centres undefined)	35.5 µM [falling, single point]	
Nn1c(SCC(=O)Nc2ccc(F)cc2F)nnc1C1CCCCC1	14.1 µM [falling, partial curve, poor fit]	

(further entries)

| SMILES | AC50 [1] | AC50 [2] |
| --- | --- | --- |
| Cc1ccc(-c2csc(Nc3ccc(C(=O)O)cc3)[n+]2Cc2ccccc2)cc1 | 15.8 µM [falling, partial curve] |  |
| CCOC(=O)c1c(CN(CC)CC)oc2cc(Br)c(O)cc12 | 32.6 µM [rising, single point] |  |
| Cc1ccc(C)c(-c2csc(NC(=O)c3cnccn3)n2)c1 | 0.794 µM [rising, full curve, poor fit] |  |
| Cc1cc(C)n(C(=O)CCC2COc3ccccc3O2)n1 (centres undefined) | 13 µM [rising, partial curve, poor fit] |  |
| Cc1csc(Nc2ccccc2)[n+]1C | 2.82 µM [rising, partial curve] |  |
| CCc1c(C(=O)NNC(=S)NC2CCCCC2)csc1C | 3.16 µM [falling, partial curve] |  |
| COc1cc(C(=O)N=c2sc3ccccc3n2C)cc(OC)c1OC | 10 µM [rising, partial curve, poor fit] |  |
| O=C(N/N=C1\CCc2ccccc21)c1ccccc1O | 0.146 µM [falling, full curve] |  |
| CCCCCCC(=O)Nc1nc(C)c(-c2csc(Nc3cccc(OC)c3)n2)s1 | 12.6 µM [falling, partial curve, poor fit] |  |
| N/C(CSc1ccc(Cl)cc1)=N\S(=O)(=O)c1ccc(Cl)cc1 | 17.8 µM [falling, partial curve, poor fit] |  |
| CCOc1ccccc1COC(=O)c1cccc(-n2cnnn2)c1 | 7.08 µM [falling, full curve, poor fit] |  |
| O=C(COC(=O)c1ccc2ccccc2c1)Nc1ncc(C(F)(F)F)cc1Cl | 18.4 µM [rising, partial curve, poor fit] |  |
| COc1ccc(/C=N/Nc2nc(-c3cccnc3)nc3ccccc23)cc1OC | 15.8 µM [falling, partial curve, poor fit] |  |
| COC(=O)CCCCCCCC(=O)Nc1nnc(C(F)(F)F)s1 | 7.08 µM [falling, partial curve, poor fit] |  |
| Cc1onc(-c2ccccc2)c1-c1csc(COc2ccccc2)n1 | 22.4 µM [rising, single point] |  |
| CC(=O)Nc1sc(N/N=C\c2ccccc2F)nc1-c1cccs1 | 20.6 µM [falling, single point] |  |
| CCN(CC(=O)Nc1ccc(NC(C)=O)cc1)C(=O)CSCC(=O)Nc1ccc(C)cc1 | 4.11 µM [rising, full curve, poor fit] |  |
| CCSc1cc(C)nc2c(-c3ccccc3)c(C)nn12 | 8.2 µM [rising, partial curve] |  |
| COc1ccc(CCCC(=O)NCCc2ccccc2)c(C)c1 | 11.2 µM [rising, partial curve, poor fit] |  |
| C/C(=N\Nc1c(F)c(F)c(Br)c(F)c1F)c1ccncc1 | 2.24 µM [rising, partial curve, poor fit] |  |

Some of the entries so far, tab-delimited.
SMILES	AC50 [1]	AC50 [2]
O=C(COC(=O)c1ccc2ccccc2c1)Nc1ncc(C(F)(F)F)cc1Cl	18.4 µM [rising, partial curve, poor fit]	
COc1ccc(/C=N/Nc2nc(-c3cccnc3)nc3ccccc23)cc1OC	15.8 µM [falling, partial curve, poor fit]	
